# Test results published in PubChem BioAssay AID1671190 (National Center for Advancing Translational Sciences (NCATS), 2021).
# By UniProt entry, the sequences of proteins in these tests, tags left out. Where a name states a change or a piece, a line headed by the entry shows the natural chain unless it says otherwise.
# UniProt P18054: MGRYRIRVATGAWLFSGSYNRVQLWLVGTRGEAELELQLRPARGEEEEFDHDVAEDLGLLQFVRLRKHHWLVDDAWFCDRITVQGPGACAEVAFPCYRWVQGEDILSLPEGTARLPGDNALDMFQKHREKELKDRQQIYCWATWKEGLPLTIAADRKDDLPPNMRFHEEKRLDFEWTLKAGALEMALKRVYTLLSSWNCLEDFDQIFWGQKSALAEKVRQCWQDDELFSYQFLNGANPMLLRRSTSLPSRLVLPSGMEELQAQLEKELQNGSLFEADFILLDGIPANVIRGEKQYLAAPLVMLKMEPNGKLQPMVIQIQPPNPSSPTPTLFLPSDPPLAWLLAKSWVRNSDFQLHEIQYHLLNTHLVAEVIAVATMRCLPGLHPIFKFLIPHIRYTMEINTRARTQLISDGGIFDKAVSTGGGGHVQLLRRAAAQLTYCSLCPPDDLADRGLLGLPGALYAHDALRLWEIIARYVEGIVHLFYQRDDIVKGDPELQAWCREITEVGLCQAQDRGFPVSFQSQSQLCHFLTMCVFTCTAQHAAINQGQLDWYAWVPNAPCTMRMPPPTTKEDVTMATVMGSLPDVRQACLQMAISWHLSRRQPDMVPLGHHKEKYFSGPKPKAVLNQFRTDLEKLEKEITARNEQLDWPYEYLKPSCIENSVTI
# Screen size: about 580,000 compounds; about 6,100 (1.1%) were called active. Inconclusive means that the source gave no clear call. Such entries were picked first, then a sample of the others. Calls follow the shape of the dose curve; as a rule, active = well fitted inhibition curve with a large enough effect; inconclusive = small, poorly fitted or top-dose-only effect, or another doubt; inactive = no such curve, though single readings can be large or run the other way. Potencies beside an inconclusive call are fits to weak or partial responses and may not hold up.
# Target: Polyunsaturated fatty acid lipoxygenase ALOX12 (Homo sapiens) (UniProt P18054)
# Test: Primary qHTS assay for inhibitors of human arachidonate 12S-lipoxygenase (ALOX12): Round 2
# Conditions: purified 12hLO, xylenol orange hydroperoxide absorbance; activity change, negative = inhibition: at 108 µM (top of the series) unless noted
# Method in brief: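 Purified human 12hLO (150 nM final) in 25 mM Hepes, 0.01% Triton X-100, pH 7.0 was preincubated 15 min at room temperature with compound. Then 40 uM arachidonic acid was added, 30 min. Hydroperoxide was read by Fe-XO absorbance ratio 573/405 nm.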
# % is scaled to controls: 0 for no effect and ±100 for the full control effect; potency is read from the fitted curve at half-maximal effect.
SMILES,"activity change, negative = inhibition",Potency
Cc1ccc(Cl)cc1Nc1nn2c(=O)c3ccc(C(=O)NC4CCCCC4)cc3nc2s1,inactive: -4.51%,–
Cc1ccc(C(=O)OC(C)CN2CCN(C)CC2)cc1 (stereo not drawn),–,"inconclusive: 31.6 µM [inhibitor, full curve, poor fit]"
Cc1ccc(C2=NN(C(=O)CCl)C(c3cccs3)C2)o1 (stereo not drawn),–,"inconclusive: 44.7 µM [inhibitor, partial curve]"
CC1(C)Cc2c(cnn2-c2ccc(F)cc2)C(NC(=O)C(C)(C)O)C1 (stereo not drawn),–,"inconclusive: 141 µM [inhibitor, single point]"
COc1ccc(CNC(=O)c2ccc(CS(=O)(=O)c3ccc(Br)cc3)o2)cc1,–,"inconclusive: 112 µM [inhibitor, partial curve, poor fit]"
CC(C)N1C(=O)/C(=C/c2nc3ccccc3c(=O)n2-c2ccccc2)c2ccccc21,–,"inconclusive: 79.4 µM [inhibitor, partial curve, poor fit]"
OC12CC3CC(C1)CC(NCc1ccco1)(C3)C2,inactive: -3.83%,–
Cc1cc(/C=C2/NC(=O)NC2=O)c(C)n1-c1ccc(C#N)cc1,–,"inconclusive: 50.1 µM [inhibitor, partial curve, poor fit]"
Cc1nn(C)c(=O)n1-c1ccc(Oc2ccccc2)cc1,–,"inconclusive: 35.5 µM [inhibitor, single point]"
COc1cc(C2C3=C(CCCC3=O)OC3=C2C(=O)CCC3)cc(Br)c1OCC(=O)O,inactive: -2.63%,–
CCCC1=NN(C(=O)C(=O)Nc2ccc(Br)cc2)C(O)(C(F)(F)F)C1 (stereo not drawn),–,"inconclusive: 44.7 µM [inhibitor, partial curve]"
CN(Cc1cccnc1)Cc1nc(C2(O)CCN(C(=O)c3ccc(F)cc3)CC2)cs1,inactive: 133%,–
O=Cc1cc(Br)cc(Cl)c1O,–,active: 44.7 µM
CC(=O)c1cccc(NC(=O)CSc2nc(=O)n(CCCN3CCOCC3)c3c2CCC3)c1,inconclusive: -31% [inhibitor],–
CC(C)C1Cc2c(sc(NC(=S)NC(=O)c3ccccc3)c2C#N)CO1 (stereo not drawn),inactive: -6.73%,–
Cc1ccc(C)c(CN2C(=O)c3ccccc3S(=O)c3ccc(C(=O)NCCCN4CCCC4)cc32)c1 (stereo not drawn),–,"inconclusive: 63.1 µM [inhibitor, partial curve, poor fit]"
CC(C)(C)NC(=O)COC(=O)c1cncc(Br)c1,inactive: 23.5%,–
Cc1cc([N+](=O)[O-])nn1Cc1ccc(C(=O)N/N=C/c2ccc(O)cc2O)cc1,inactive: -18.3%,–
CCOc1cccc(CN2CCC(C(Cc3ccccc3F)N(C)C(=O)c3cccs3)CC2)c1O (stereo not drawn),inactive: 15.3%,–
COc1cccc(OC)c1OC(=O)/C=C/c1ccc(C)o1,–,"inconclusive: 56.2 µM [inhibitor, partial curve, poor fit]"
CSc1ccc(C(=S)N2CCN(Cc3ccccc3)CC2)cc1,inactive: 0%,–
CCn1c(=O)c2c(nc(-n3nc(C)c(C)c3C)n2CC)n(C)c1=O,inactive: -14.6%,–
CC(=O)c1ccccc1NC(=O)c1ccc2ccccc2n1,–,"inconclusive: 3.16 µM [inhibitor, full curve, poor fit]"

SMILES,"activity change, negative = inhibition",Potency
COc1ccc(C2C(C#N)=C(N)SC(N)=C2C#N)cc1OC,–,"inconclusive: 44.7 µM [inhibitor, partial curve, poor fit]"
CCOc1ccc(/C(O)=C2/C(=O)C(=O)N(c3ccccn3)C2c2ccc(F)cc2)c(C)c1 (stereo not drawn),–,"inconclusive: 35.5 µM [inhibitor, partial curve]"
COc1cccc(-n2c(C)c(C)c3c2ncn2nc(-c4cccs4)nc32)c1,inactive: 0.131%,–
CCC(C)(C)NC(=O)Cn1c(-c2ccccc2)cc(C(C)=O)c1C,inactive: -6.94%,–
O=C(Cn1ncc2c3ccccc3n(Cc3cccc(Cl)c3)c2c1=O)NCC1CCCO1 (stereo not drawn),–,"inconclusive: 28.2 µM [inhibitor, partial curve, poor fit]"
CSc1ccc(C2C(C#N)=C(N)Oc3c2ccc(=O)c2c(C)oc(C)c32)cc1 (stereo not drawn),–,"inconclusive: 70.8 µM [inhibitor, single point]"
COc1ccc(S(=O)(=O)Nc2cc(C)c(O)cc2C(C)C)cc1,–,"inconclusive: 50.1 µM [inhibitor, single point]"
CCCCCCCCOc1ccccc1C(=O)Nc1ccc(C(=O)OCC[N+](C)(CC)CC)cc1,–,"inconclusive: 1.72 µM [inhibitor, full curve]"
CCOC(=O)N1CCN(C2CCCN(C(=O)c3ccccc3C(F)(F)F)C2)CC1 (stereo not drawn),–,"inconclusive: 89.1 µM [inhibitor, partial curve, poor fit]"
O=S(=O)(NCc1ccc(Cl)c(Cl)c1)c1cc(Cl)ccc1N1CC[C@@H](O)C1,–,"inconclusive: 56.2 µM [inhibitor, partial curve, poor fit]"
CN(C)C(=N)c1n[nH]nc1SCc1ccccc1,–,"inconclusive: 31.6 µM [inhibitor, single point]"
COc1ccc(OC)c(S(=O)(=O)NCC2CNCCOC2)c1 (stereo not drawn),–,"inconclusive: 28.2 µM [inhibitor, partial curve]"
O=S(=O)(c1cccs1)N1CCCc2ccccc21,inconclusive: -31.1% [inhibitor],–
CC1=C(c2ccc(C(C)C)cc2)S(=O)(=O)NC1=NCc1ccc(Cl)cc1,–,"inconclusive: 56.2 µM [inhibitor, partial curve, poor fit]"
CN(C)/C=C1/Nc2ccccc2C1=O,–,"inconclusive: 1.41 µM [inhibitor, partial curve, poor fit]"
Cn1c(=S)ccc2ccccc21,–,"inconclusive: 50.1 µM [inhibitor, partial curve, poor fit]"
CCc1ccc2occ(CC(=O)Nc3ccc(C)c(C)c3)c2c1,inactive: 4.87%,–
Cc1c(CN(C)Cc2cn(C)nc2-c2ccccc2F)[nH]c2ccccc12,–,"inconclusive: 89.1 µM [inhibitor, single point]"
Clc1ccc(SCc2cn3ccsc3n2)cc1,inactive: 0%,–
CC1CCN(CCOc2cc(Cl)ccc2Cl)CC1,–,"inconclusive: 0.562 µM [inhibitor, full curve, poor fit]"
N#Cc1nc(C2CC2)oc1N1CCN(Cc2ccccc2Cl)CC1,–,"inconclusive: 56.2 µM [inhibitor, partial curve, poor fit]"
COc1ccc(C(=O)/C=C/c2cccs2)c(OC(=O)c2ccco2)c1,–,"inconclusive: 50.1 µM [inhibitor, partial curve, poor fit]"
Cc1csc(SCC(=O)NC(=O)NC(C)C)n1,inactive: 2.51%,–

# Some of the entries above, reformatted.
SMILES | activity change, negative = inhibition | Potency
Cc1cc(/C=C2/NC(=O)NC2=O)c(C)n1-c1ccc(C#N)cc1 | – | inconclusive: 50.1 µM [inhibitor, partial curve, poor fit]
COc1cccc(-n2c(C)c(C)c3c2ncn2nc(-c4cccs4)nc32)c1 | inactive: 0.131% | –

# Going on with the list:

SMILES,"activity change, negative = inhibition",Potency
CC(=O)c1ccc(Sc2ccc(F)cc2)c(F)c1,–,"inconclusive: 141 µM [inhibitor, single point]"
COc1cc2[nH]c(=S)n(CCCN3CCOCC3)c(=O)c2cc1OC,–,"inconclusive: 3.16 µM [inhibitor, full curve, poor fit]"
CC(c1nc2ccccc2s1)N(C)S(=O)(=O)c1cccc(C#N)c1 (stereo not drawn),–,"inconclusive: 44.7 µM [inhibitor, partial curve, poor fit]"
Cc1ccc(-c2ccc(C(=O)NCc3ccc(Cl)cc3)o2)c2ccccc12,inactive: -29.3%,–
O=C(CSc1nccc(=O)[nH]1)Nc1ccc2ccccc2c1,–,"inconclusive: 79.4 µM [inhibitor, partial curve, poor fit]"
O=C(O)c1ccc2c(c1)-c1nc3ccccc3n1C2=O,–,"inconclusive: 35.5 µM [inhibitor, single point]"
CCCCn1c(N)c(N(CC)C(=O)c2cc(CC)c(C)s2)c(=O)[nH]c1=O,–,"inconclusive: 79.4 µM [inhibitor, single point]"
O=C(NCC1CC1)c1ccc(Nc2nc3ccc(Br)cc3[nH]2)cc1,–,"inconclusive: 39.8 µM [inhibitor, partial curve, poor fit]"
O=S(=O)(c1cccs1)N1CCN(CC(O)COc2cccc(Br)c2)CC1 (stereo not drawn),–,"inconclusive: 1.12 µM [inhibitor, full curve, poor fit]"
CCn1c(C)nnc1SCC(=O)NC1CCCCCC1,inactive: -17.3%,–
O=C(c1cc2cc3ccc(Cl)cc3nc2o1)N1CCN(c2cccc(Cl)c2)CC1,–,"inconclusive: 89.1 µM [inhibitor, partial curve, poor fit]"
Cc1ccc(NC(=O)N[C@H]2C[C@@](O)(C(=O)N[C@@H](Cc3ccc(O)cc3)C(N)=O)C[C@@H](O)[C@@H]2O)cc1,inactive: 10.5%,–
O=C(NC(Cc1ccccc1)C(=O)O)/C(=C/c1ccco1)NC(=O)c1cccc(Br)c1 (stereo not drawn),–,"inconclusive: 141 µM [inhibitor, single point]"
CN(C)CCC1c2ccc(Cl)cc2CCc2cccnc21 (stereo not drawn) (tested in a mixture with another compound),–,"inconclusive: 35.5 µM [inhibitor, partial curve, poor fit]"
CCCn1ncc2c(Nc3ccc(C)c(C)c3)ncnc21,inactive: -15.7%,–
CN(C)C(=O)c1ccc(-c2ccc3ncnc(N4CCC(C(=O)O)CC4)c3c2)cc1,–,"inconclusive: 10 µM [inhibitor, partial curve, poor fit]"
COc1ccc(NCC(=O)N/N=C/c2cc([N+](=O)[O-])ccc2N2CCCC2)cc1,inactive: -7.99%,–
O=C(CC12CC3CC(CC(C3)C1)C2)NCc1ccc(Cl)cc1Cl,–,"inconclusive: 56.2 µM [inhibitor, partial curve, poor fit]"
Cc1cccc(NC(=O)N2CC=C(c3c[nH]c4ccccc34)CC2)c1C,inactive: 36.9%,–
COC(=O)c1ccc2[nH]c([C@H](C)O)c([C@H](C)O)c2c1,inactive: -1.78%,–
CSc1ccc(CCNC(=O)CCc2nnc3ccc(N4CCC5(CC4)OCCO5)nn23)cc1,inactive: 0.492%,–
COc1ccc(C(=O)NC(=S)Nc2ccc(N3CCOCC3)c(Cl)c2)cc1[N+](=O)[O-],–,"inconclusive: 22.4 µM [inhibitor, full curve, poor fit]"
